pIC50: −log10 of the molar value.
Biological target: Human KLK1 (Homo sapiens (Human), UniProt P06870)
Test: Determination of the IC50 for KLK1
Format: biochemical
Settings: 25° C., fluorogenic substrate H-DVal-Leu-Arg-AFC
Method: Determination of the IC50 for KLK1
Human KLK1 (Callbiochem) was incubated at 25° C. with the fluorogenic substrate H-DVal-Leu-Arg-AFC and various concentrations of the test compound. Residual enzyme activity (initial rate of reaction) was determined by measuring the change in […] at 410 nm and the IC50 value for the test compound was determined.

The chains behind the UniProt entries cited, without tags or fusion partners. Residues count along the entry.
UniProt P06870, 25-262: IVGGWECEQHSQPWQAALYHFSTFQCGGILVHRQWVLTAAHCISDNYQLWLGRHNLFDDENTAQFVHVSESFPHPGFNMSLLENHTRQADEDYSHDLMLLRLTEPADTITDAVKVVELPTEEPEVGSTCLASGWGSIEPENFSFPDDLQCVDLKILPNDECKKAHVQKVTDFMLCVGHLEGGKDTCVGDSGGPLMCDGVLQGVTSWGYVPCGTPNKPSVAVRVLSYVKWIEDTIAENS

Molecule `COCc1nn(Cc2ccc(Cn3ccccc3=O)cc2)cc1C(=O)NCc1c(F)ccc(OC)c1C(F)F` [Example 83, N-{[2-(difluoromethyl)-6-fluoro-3-methoxyphenyl]methyl}-3-(methoxymethyl)-1-({4-[(2-oxopyridin-1-yl)methyl]phenyl}methyl)pyrazole-4-carboxamide] has a pIC50 of under 4.40.

Reference: patent publication US10364238B2, “N-((het) arylmethyl)-heteroaryl-carboxamides compounds as plasma kallikrein inhibitors” (KALVISTA PHARMACEUTICALS LIMITED, priority 2014, dated 2019)
